Results published in the supplement of paper PMC10735217.
Counter-ions that a name gives are not always drawn. Some of the results follow. Single values are uncertain here, since repeats match poorly.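 In a drug-repurposing library screen, luminescence reads luciferase driven by eight TEAD-binding elements, stably integrated into human kidney-derived cells. Compounds scoring over five robust Z scores above the plate mean are called hits.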

System: HEK293A TEAD-LUC reporter
Experiment: TEAD-luciferase reporter activity (YAP activation), robust Z score vs plate; higher = stronger YAP/TEAD activation
Details: 24 h

| SMILES | TEAD-luciferase reporter activity (compound concentration: 200 nM) | TEAD-luciferase reporter activity (compound concentration: 2 uM) | TEAD-luciferase reporter activity (compound concentration: 10 uM) |
| --- | --- | --- | --- |
| O=C(O)CN(CC(=O)O)CC(=O)Nc1ccc(Cl)cc1C(=O)c1ccccc1 | inactive: 2.9 | inactive: 2.29 | inactive: -1.67 |
| CCCc1nc(C(C)(C)O)c(C(=O)OCc2oc(=O)oc2C)n1Cc1ccc(-c2ccccc2-c2nnn[nH]2)cc1 [Olmesartan medoxomil] | inactive: -2.34 | inactive: -1.94 | inactive: 2.77 |
| CCC(=O)O[C@@H]1CC(=O)O[C@H](C)C/C=C/C=C/[C@H](O[C@H]2CC[C@H](N(C)C)[C@@H](C)O2)[C@H](C)C[C@H](CC=O)[C@H](O[C@@H]2O[C@H](C)[C@@H](O[C@H]3C[C@@](C)(O)[C@@H](O)[C@H](C)O3)[C@H](N(C)C)[C@H]2O)[C@H]1OC | inactive: -1.59 | inactive: 0.709 | inactive: 0.117 |
| CCCS(=O)c1ccc2[nH]c(NC(=O)OC)nc2c1 (configuration not stated) | inactive: -0.333 | inactive: -1.2 | inactive: -1.66 |
| CN(Cc1cc(Br)cc(Br)c1N)C1CCCCC1 [Bromhexine hydrochloride] |  | inactive: -2.33 |  |
| CN(Cc1cc(Br)cc(Br)c1N)C1CCCCC1 [Bromhexine HCl] | inactive: 0.704 |  | inactive: -2.12 |
| CC(C)n1c(=O)n(C(=O)NCC2CCN(CC3(O)CCOCC3)CC2)c2ccccc21 | inactive: -0.522 | inactive: -0.305 | inactive: 1.14 |
| OC1(c2ccc(Cl)c(C(F)(F)F)c2)CCN(CCCC(c2ccc(F)cc2)c2ccc(F)cc2)CC1 [penfluridol] | inactive: -0.733 | inactive: 1.94 | inactive: 2.58 |
| NCCC(=O)N1CCCC2(Cc3ccccc3CN2C(=O)C2CCCC2)C1 (configuration not stated) | inactive: -0.682 |  | inactive: -0.191 |
| CCOC(=O)[C@H](CCc1ccccc1)N[C@H]1CS[C@H](c2cccs2)CN(CC(=O)O)C1=O [temocapril] | inactive: -0.0194 | inactive: -0.212 | inactive: 3.65 |
| COC(=O)C1=C(C)NC(C)=C(C(=O)OCC(C)(C)CN(C)Cc2ccccc2)C1c1cc([N+](=O)[O-])ccc1F (configuration not stated) | active: 5.42 | inactive: 0.366 | inactive: -0.6 |
| CC(C)Oc1cccc(CC(=O)N2CCC[C@](CC[N+]34CCC(c5ccccc5)(CC3)CC4)(c3ccc(Cl)c(Cl)c3)C2)c1 | inactive: -1.6 | inactive: -1.31 | inactive: 2.67 |
| Cc1cccc(C)c1NC(=O)c1ccc(N)cc1 [Ameltolide] | inactive: -1.12 | inactive: -1.91 | inactive: 1.62 |
| CN(c1ccc(/C=C/C[C@H](NC(=O)c2ccccc2)C(=O)O)cc1)c1ncccn1 | inactive: -0.703 | inactive: 0.226 | inactive: 0.946 |
| CCCCCCCCCCCCCCCCCCOC1=C(O)[C@@H]([C@@H](O)CO)OC1=O | inactive: -0.274 | inactive: 0.0171 | inactive: -0.173 |
| CN1CCCN=C1COC(=O)C(O)(c1ccccc1)C1CCCCC1 (configuration not stated) | inactive: -1.8 |  | inactive: 0.538 |
| CN1CCCN=C1COC(=O)C(O)(c1ccccc1)C1CCCCC1 (configuration not stated) [Oxyphencyclimine hydrochloride] |  | inactive: 0.591 |  |
| O=C(Nc1c[nH]nc1-c1nc2cc(CN3CCOCC3)ccc2[nH]1)NC1CC1 | inactive: -0.682 | inactive: 1.98 | inactive: -2.57 |
| COc1cc2ncnc(Nc3ccc(F)c(Cl)c3)c2cc1NC(=O)/C=C/CN1CCCCC1 [dacomitinib] | inactive: -0.613 | inactive: -0.983 | inactive: -0.0359 |
| CN(Cc1ccc(S(=O)(=O)N2CCOCC2)cc1)c1ccc2c3c(cccc13)C(=N)N2 [Metesind glucuronate] | inactive: -0.815 | inactive: 0.834 | inactive: -0.66 |
| C=C1CC[C@H]2[C@H](CN)[C@@H]([C@@]3(C)CC[C@H](O)C[C@@H]3CO)CC[C@]12C [Rosiptor] | inactive: -0.611 |  | inactive: 1.11 |
| NCC(=O)N1C[C@H](NC(=O)c2ccccc2)C[C@H]1C(=O)O [danegaptide] | inactive: -0.934 | inactive: -0.887 | inactive: 0.788 |
| CCN(CC)CCCN1C(=O)c2c(ccc3nc(-c4ccccc4)[nH]c23)C(C)(C)C1=O | inactive: -0.896 | inactive: 1.97 | inactive: 2.6 |
| Cn1nnc2ccc([C@@H](c3ccc(Cl)cc3)n3cncn3)cc21 | inactive: -0.352 | inactive: -0.859 | inactive: 2.83 |
| CN(C)CCc1c[nH]c2ccc(C[C@@H]3COC(=O)N3)cc12 [zolmitriptan] | inactive: -2.05 | inactive: 0.199 | inactive: 0.538 |
| O=C(NCC(F)F)c1ccc(-n2[nH]c3c(nnc4c(F)cccc43)c2=O)cc1 | inactive: 4.76 | inactive: -1.12 | inactive: 2.49 |

| SMILES | TEAD-luciferase reporter activity (compound concentration: 200 nM) | TEAD-luciferase reporter activity (compound concentration: 2 uM) | TEAD-luciferase reporter activity (compound concentration: 10 uM) |
| --- | --- | --- | --- |
| CCOC(=O)C(C)(CC)Oc1ccc(Cc2ccc(Cl)cc2)cc1 (configuration not stated) | inactive: 0.292 | inactive: -0.722 | inactive: -0.831 |
| CC(C)(C)Cn1c(N)nc2ccc(-c3[nH]c(C(C)(C)C)nc3-c3ccc(F)cc3)nc21 | inactive: -0.997 | inactive: -1.34 | inactive: 1.88 |
| O=NN(CCCl)C(=O)NC1CCCCC1 [lomustine] |  | inactive: -1.33 |  |
| O=NN(CCCl)C(=O)NC1CCCCC1 | inactive: 0.449 |  | inactive: -2.25 |
| Cc1nnc(-c2ccc(-c3ccc(N4C[C@H](C(N)=O)OC4=O)cc3)cn2)s1 | inactive: -0.848 | inactive: 1.3 | inactive: 2.62 |
| CCC1(O)CC(OC2CC(N(C)C)C(OC3CC(O)C(OC4CCC(=O)C(C)O4)C(C)O3)C(C)O2)c2c(cc3c(c2O)C(=O)c2c(O)cccc2C3=O)C1C(=O)OC (configuration not stated) [aclarubicin] | inactive: 1.63 | active: 6.71 | active: 39 |
| CCSC1Oc2cc(O)ccc2C=C1c1ccc(O)cc1 (configuration not stated) | inactive: -1.53 |  | inactive: -0.299 |
| C#C[C@]1(O)CC[C@H]2[C@@H]3CCC4=CC(=O)CC[C@@H]4[C@H]3CC[C@@]21C [19-Norethindrone] | inactive: -1.59 |  | inactive: -0.16 |
| C#C[C@]1(O)CC[C@H]2[C@@H]3CCC4=CC(=O)CC[C@@H]4[C@H]3CC[C@@]21C [Norethisterone] |  | inactive: -0.894 |  |
| CNC(=O)c1ccccc1Nc1nc(Nc2ccc3c(c2OC)CCC[C@H](N2CCN(CCO)CC2)C3)ncc1Cl | inactive: -2.04 | inactive: -1.97 | inactive: 0.942 |
| NS(=O)(=O)c1cc2c(cc1C(F)(F)F)NCNS2(=O)=O | inactive: 0.389 |  | inactive: -0.391 |
| NS(=O)(=O)c1cc2c(cc1C(F)(F)F)NCNS2(=O)=O [Hydroflumethiazide] |  | inactive: -0.0317 |  |
| CC(C)(CCc1ccccc1)NCC(O)c1ccc2c(c1)CCC(=O)N2 (configuration not stated) | inactive: -0.0218 | inactive: -0.958 | inactive: 4.9 |
| CCN(c1cc(-c2ccc(CN3CCOCC3)cc2)cc(C(=O)NCc2c(C)cc(C)[nH]c2=O)c1C)C1CCOCC1 [tazemetostat] | inactive: -0.913 | inactive: -1.03 | inactive: -1.3 |
| N#Cc1ccccc1CN1CCSC1=O | inactive: -1.11 | inactive: -0.898 | inactive: 3.39 |
| OC[C@H]1O[C@@H](Oc2cc3c(O)cc(O)cc3[o+]c2-c2cc(O)c(O)c(O)c2)[C@H](O[C@@H]2OC[C@@H](O)[C@H](O)[C@H]2O)[C@@H](O)[C@@H]1O [Delphinidin-3-sambubioside] | inactive: -0.789 | inactive: 3.43 | inactive: -0.429 |
| CC(C)NCC(O)COc1cccc2sncc12 (configuration not stated) | inactive: -0.518 | inactive: 0.0582 | inactive: -0.24 |
| O=C([O-])c1cccc(/C=C2/C[C@@H]3[C@@H](/C=C/[C@@H](O)C4CCCCC4)[C@H](O)C[C@@H]3O2)c1 [Taprostene sodium salt] | inactive: -0.0559 | inactive: -0.167 | inactive: 0.0463 |
| COCc1nnc(-c2ccc[n+]([O-])c2)n1-c1c(Cl)c(Cl)cc2c1=NC(=O)C(=O)N=2 | inactive: 0.942 | inactive: -0.699 | inactive: 0.834 |
| CC[C@H](C)[C@H](N)C(=O)n1nc(C)c2c(Cl)c3cc(OC)ccc3nc21 | inactive: 3.13 | inactive: -1.26 | inactive: -1.93 |
| CC(C)c1onc(-c2c(Cl)cccc2Cl)c1COc1ccc(-c2ccc3c(C(=O)O)cccc3c2)cc1 | inactive: -0.413 | inactive: -0.756 | inactive: 2.03 |
| COC1CC(OC2C(C)C(=O)OC(C)C(C)C(O)C(C)C(=O)C3(CO3)CC(C)C(OC3OC(C)CC(N(C)C)C3O)C2C)OC(C)C1O (configuration not stated) | inactive: 0.176 | inactive: -0.71 | inactive: -1.05 |
| C[C@]12C=CC(=O)C=C1CC[C@@H]1[C@@H]2[C@@H](O)C[C@@]2(C)[C@H]1C[C@H]1O[C@@H](C3CCCCC3)O[C@]12C(=O)CO [Desisobutyrylciclesonide] | active: 8.77 | inactive: 0.146 | inactive: -0.0684 |
| CCC1=NC(NC(=O)Nc2cccc(C)c2)C(=O)N(CC(=O)C2CCCCC2)c2c(C)cccc21 (configuration not stated) | inactive: -0.434 | inactive: -0.215 | inactive: -0.332 |
| S=C1NCCC(COc2ccccc2)O1 (configuration not stated) | inactive: -0.436 |  | inactive: -0.31 |
| C[C@]1(C(=O)N2CCOCC2)CO[C@@H](c2nc(-c3ccncc3)c(-c3ccc(F)cc3)[nH]2)OC1 | inactive: -1.15 | inactive: -1.33 | inactive: 0.387 |

Only TEAD-luciferase reporter activity (compound concentration: 2 uM) and TEAD-luciferase reporter activity (compound concentration: 200 nM) (3 entries from above):

| SMILES | TEAD-luciferase reporter activity (compound concentration: 2 uM) | TEAD-luciferase reporter activity (compound concentration: 200 nM) |
| --- | --- | --- |
| CN1CCCN=C1COC(=O)C(O)(c1ccccc1)C1CCCCC1 (configuration not stated) |  | inactive: -1.8 |
| CN1CCCN=C1COC(=O)C(O)(c1ccccc1)C1CCCCC1 (configuration not stated) [Oxyphencyclimine hydrochloride] | inactive: 0.591 |  |
| O=C(Nc1c[nH]nc1-c1nc2cc(CN3CCOCC3)ccc2[nH]1)NC1CC1 | inactive: 1.98 | inactive: -0.682 |
